PubChem BioAssay AID1224830 – NIAID | 2016
Shown is one part, drawn at random, of about 18,000 deposited reagents. Over the whole deposit, about 2,900 (16%) got an active call. 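Calls are made per well; low scores hint the gene aids the LPS response, high scores that it dampens it.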 Reagents against one gene are numbered here. Repeated entries: four replicate wells of each siRNA pool.

- Purpose: 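Host factors that control LPS-induced TNF expression in human macrophages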 (primary screen)
- Cells: human THP-1 monocytic leukaemia cells, TNF dual-luciferase reporter clone, PMA-differentiated to macrophage-like cells
- Knock-down reagent: siRNA pool against human genes, 50 nM
- Timing: LPS for 4 h, given about 3 days after siRNA transfection
- Conditions: bacterial LPS (TLR4 ligand), 10 ng/ml
- Measured: 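Ratio of firefly to renilla light, scaled to the plate median and expressed as a robust z-score per replicate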
- Scale: TNF reporter robust z-score: higher = stronger TNF reporter response to LPS
- Active means: 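Each well counts as active if its z-score is over 2.8 or under -1.5; controls are left without a call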

| gene | reagent no. | TNF reporter robust z-score | Call |
| --- | --- | --- | --- |
| PEG10 (GeneID 23089) | 1 | 1.23 | inactive |
| PEG10 (GeneID 23089) | 1 | -0.1 | inactive |
| PEG10 (GeneID 23089) | 1 | 3.33 | active |
| PEG10 (GeneID 23089) | 1 | 2.83 | active |
| CLASP1 (GeneID 23332) | 1 | 0.91 | inactive |
| CLASP1 (GeneID 23332) | 1 | 1.15 | inactive |
| CLASP1 (GeneID 23332) | 1 | 0.89 | inactive |
| CLASP1 (GeneID 23332) | 1 | 0.74 | inactive |
| TFAP2D (GeneID 83741) | 1 | 2.5 | inactive |
| TFAP2D (GeneID 83741) | 1 | 2.62 | inactive |
| TFAP2D (GeneID 83741) | 1 | 0.99 | inactive |
| TFAP2D (GeneID 83741) | 1 | 0.97 | inactive |
| LPGAT1 (GeneID 9926) | 1 | -0.76 | inactive |
| LPGAT1 (GeneID 9926) | 1 | -0.42 | inactive |
| LPGAT1 (GeneID 9926) | 1 | -1.08 | inactive |
| LPGAT1 (GeneID 9926) | 1 | -0.74 | inactive |
| LRMDA (GeneID 83938) | 1 | -0.03 | inactive |
| LRMDA (GeneID 83938) | 1 | -0.53 | inactive |
| LRMDA (GeneID 83938) | 1 | -0.07 | inactive |
| LRMDA (GeneID 83938) | 1 | -0.54 | inactive |
| LRRC47 (GeneID 57470) | 1 | -0.94 | inactive |
| LRRC47 (GeneID 57470) | 1 | -0.8 | inactive |
| LRRC47 (GeneID 57470) | 1 | 0.71 | inactive |
| LRRC47 (GeneID 57470) | 1 | -0.69 | inactive |
| RAD51B (GeneID 5890) | 1 | 0.18 | inactive |
| RAD51B (GeneID 5890) | 1 | -0.04 | inactive |
| RAD51B (GeneID 5890) | 1 | -0.27 | inactive |
| RAD51B (GeneID 5890) | 1 | 0.38 | inactive |
| FBXL3 (GeneID 26224) | 1 | 0.51 | inactive |
| FBXL3 (GeneID 26224) | 1 | -0.2 | inactive |
| FBXL3 (GeneID 26224) | 1 | 0.17 | inactive |
| FBXL3 (GeneID 26224) | 1 | -0.93 | inactive |
| CISD1 (GeneID 55847) | 1 | -0.29 | inactive |
| CISD1 (GeneID 55847) | 1 | -0.44 | inactive |
| CISD1 (GeneID 55847) | 1 | -0.54 | inactive |
| CISD1 (GeneID 55847) | 1 | -0.28 | inactive |
| RWDD2A (GeneID 112611) | 1 | 0.63 | inactive |
| RWDD2A (GeneID 112611) | 1 | 0.04 | inactive |
| RWDD2A (GeneID 112611) | 1 | -1.01 | inactive |
| RWDD2A (GeneID 112611) | 1 | -0.17 | inactive |
| AGO1 (GeneID 26523) | 1 | 1.12 | inactive |
| AGO1 (GeneID 26523) | 1 | 1.81 | inactive |
| AGO1 (GeneID 26523) | 1 | 0.76 | inactive |
| AGO1 (GeneID 26523) | 1 | 1.21 | inactive |
| RPL6 (GeneID 6128) | 1 | 0.37 | inactive |
| RPL6 (GeneID 6128) | 1 | 0.76 | inactive |
| RPL6 (GeneID 6128) | 1 | 0.21 | inactive |
| RPL6 (GeneID 6128) | 1 | -0.02 | inactive |
| QARS1 (GeneID 5859) | 1 | 1.72 | inactive |
| QARS1 (GeneID 5859) | 1 | 0 | inactive |
| QARS1 (GeneID 5859) | 1 | 3.17 | active |
| QARS1 (GeneID 5859) | 1 | 2.26 | inactive |
| SCD5 (GeneID 79966) | 1 | 2.78 | inactive |
| SCD5 (GeneID 79966) | 1 | 0.53 | inactive |
| SCD5 (GeneID 79966) | 1 | -0.84 | inactive |
| SCD5 (GeneID 79966) | 1 | -1.18 | inactive |
| ZNF281 (GeneID 23528) | 1 | -1.21 | inactive |
| ZNF281 (GeneID 23528) | 1 | -0.8 | inactive |
| ZNF281 (GeneID 23528) | 1 | -0.49 | inactive |
| ZNF281 (GeneID 23528) | 1 | -1.09 | inactive |
| NFKB1 (GeneID 4790) | 1 | 4.18 | active |
| NFKB1 (GeneID 4790) | 1 | -0.46 | inactive |
| NFKB1 (GeneID 4790) | 1 | -0.49 | inactive |
| NFKB1 (GeneID 4790) | 1 | -0.8 | inactive |
| CDH13 (GeneID 1012) | 1 | -0.53 | inactive |
| CDH13 (GeneID 1012) | 1 | -0.3 | inactive |
| CDH13 (GeneID 1012) | 1 | -0.89 | inactive |
| CDH13 (GeneID 1012) | 1 | -0.84 | inactive |
| GLI1 (GeneID 2735) | 1 | 0.04 | inactive |
| GLI1 (GeneID 2735) | 1 | 1.69 | inactive |
| GLI1 (GeneID 2735) | 1 | 0.19 | inactive |
| GLI1 (GeneID 2735) | 1 | 1.55 | inactive |
| ERMARD (GeneID 55780) | 1 | 1.63 | inactive |
| ERMARD (GeneID 55780) | 1 | 1.09 | inactive |
| ERMARD (GeneID 55780) | 1 | 0.66 | inactive |
| ERMARD (GeneID 55780) | 1 | 0.62 | inactive |
| MICAL2 (GeneID 9645) | 1 | -0.39 | inactive |
| MICAL2 (GeneID 9645) | 1 | 0.57 | inactive |
| MICAL2 (GeneID 9645) | 1 | 0.86 | inactive |
| MICAL2 (GeneID 9645) | 1 | -0.56 | inactive |
| MICAL2 (GeneID 9645) | 2 | -0.33 | inactive |
| MICAL2 (GeneID 9645) | 2 | 2.65 | inactive |
| MICAL2 (GeneID 9645) | 2 | 2.7 | inactive |
| MICAL2 (GeneID 9645) | 2 | 2.43 | inactive |
| SLC13A1 (GeneID 6561) | 1 | 0.28 | inactive |
| SLC13A1 (GeneID 6561) | 1 | 2.38 | inactive |
| SLC13A1 (GeneID 6561) | 1 | 0.49 | inactive |
| SLC13A1 (GeneID 6561) | 1 | 0.4 | inactive |
| RBM46 (GeneID 166863) | 1 | -0.68 | inactive |
| RBM46 (GeneID 166863) | 1 | -0.04 | inactive |
| RBM46 (GeneID 166863) | 1 | 0.96 | inactive |
| RBM46 (GeneID 166863) | 1 | 1.95 | inactive |
| PSMB5 (GeneID 5693) | 1 | -0.24 | inactive |
| PSMB5 (GeneID 5693) | 1 | -0.75 | inactive |
| PSMB5 (GeneID 5693) | 1 | -1.23 | inactive |
| PSMB5 (GeneID 5693) | 1 | -0.33 | inactive |
| FABP5 (GeneID 2171) | 1 | -1.33 | inactive |
| FABP5 (GeneID 2171) | 1 | 1.42 | inactive |
| FABP5 (GeneID 2171) | 1 | 0.71 | inactive |
| FABP5 (GeneID 2171) | 1 | 1.5 | inactive |
| SEBOX (GeneID 645832) | 1 | -0.61 | inactive |
| SEBOX (GeneID 645832) | 1 | 0.85 | inactive |
| SEBOX (GeneID 645832) | 1 | 0.33 | inactive |
| SEBOX (GeneID 645832) | 1 | -0.11 | inactive |
| PTBP3 (GeneID 9991) | 1 | 1.44 | inactive |
| PTBP3 (GeneID 9991) | 1 | 3 | active |
| PTBP3 (GeneID 9991) | 1 | 2.38 | inactive |
| PTBP3 (GeneID 9991) | 1 | 4.04 | active |
| CALN1 (GeneID 83698) | 1 | -1.47 | inactive |
| CALN1 (GeneID 83698) | 1 | -1.71 | active |
| CALN1 (GeneID 83698) | 1 | 0.91 | inactive |
| CALN1 (GeneID 83698) | 1 | 0.17 | inactive |

13 entries from above, reformatted:
{"gene":"RPL6 (GeneID 6128)","reagent no.":1,"TNF reporter robust z-score":0.21,"Call":"inactive"}
{"gene":"RPL6 (GeneID 6128)","reagent no.":1,"TNF reporter robust z-score":-0.02,"Call":"inactive"}
{"gene":"QARS1 (GeneID 5859)","reagent no.":1,"TNF reporter robust z-score":1.72,"Call":"inactive"}
{"gene":"QARS1 (GeneID 5859)","reagent no.":1,"TNF reporter robust z-score":0,"Call":"inactive"}
{"gene":"QARS1 (GeneID 5859)","reagent no.":1,"TNF reporter robust z-score":3.17,"Call":"active"}
{"gene":"QARS1 (GeneID 5859)","reagent no.":1,"TNF reporter robust z-score":2.26,"Call":"inactive"}
{"gene":"SCD5 (GeneID 79966)","reagent no.":1,"TNF reporter robust z-score":2.78,"Call":"inactive"}
{"gene":"SCD5 (GeneID 79966)","reagent no.":1,"TNF reporter robust z-score":0.53,"Call":"inactive"}
{"gene":"SCD5 (GeneID 79966)","reagent no.":1,"TNF reporter robust z-score":-0.84,"Call":"inactive"}
{"gene":"SCD5 (GeneID 79966)","reagent no.":1,"TNF reporter robust z-score":-1.18,"Call":"inactive"}
{"gene":"ZNF281 (GeneID 23528)","reagent no.":1,"TNF reporter robust z-score":-1.21,"Call":"inactive"}
{"gene":"ZNF281 (GeneID 23528)","reagent no.":1,"TNF reporter robust z-score":-0.8,"Call":"inactive"}
{"gene":"ZNF281 (GeneID 23528)","reagent no.":1,"TNF reporter robust z-score":-0.49,"Call":"inactive"}
